Measurements reported in PubChem BioAssay AID1159578 (Peter MacCallum Cancer Centre, 2015).
Test: 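siRNA pools altering how lymphatic endothelial cells close a scratch wound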 (primary screen). Cell system: human lymphatic endothelial cells. Reagent: siRNA pool against human genes, 40 nM. Duration: 48 h after transfection. Measurement: 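High-content imaging of dye-stained cells in a scratch assay measures filled wound area and nuclei per well; duplicate means given as ratio to mock and robust z-score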. Reading the numbers: migration robust z-score: higher = faster migration into the scratch; migration relative to mock: higher = more scratch area covered than mock; nuclei per well: higher = more cells in the well. Hit rule: 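Pools averaging fewer than 3300 nuclei are never called; remaining pools count as changed when migration robust z lies outside -2 to 2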. Meaning of the calls: active = migration changed; inactive = no migration change, or too few cells.
Shown is one part, drawn at random, of about 18,000 reagents tested. About 1,030 of all reagents (5.7%) were called active. 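Inactive calls also include pools with fewer than 3300 nuclei, whose migration was not assessed.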 The raw values are shown without normalisation.

Target gene,migration robust z-score,migration class with cell-count check,migration relative to mock,"nuclei per well, duplicate mean",call
PCTP (phosphatidylcholine transfer protein),0.76,migration z between -2 and 2; enough cells,1.08,5719,inactive
GAB1 (GRB2 associated binding protein 1),-0.14,migration z between -2 and 2; enough cells,0.85,3918,inactive
LDLRAD4 (low density lipoprotein receptor class A domain containing 4),-0.62,migration z between -2 and 2; enough cells,0.72,5834,inactive
IGSF21 (immunoglobin superfamily member 21),0.15,migration z between -2 and 2; enough cells,0.92,6346,inactive
ACKR2 (atypical chemokine receptor 2),-0.34,migration z between -2 and 2; enough cells,0.74,5442,inactive
LMF1 (lipase maturation factor 1),-0.22,migration z between -2 and 2; enough cells,0.82,5252,inactive
DNMT3L (DNA methyltransferase 3 like),0.2,migration z between -2 and 2; enough cells,0.84,4098,inactive
OR4N2 (olfactory receptor family 4 subfamily N member 2),-0.72,migration z between -2 and 2; enough cells,0.7,4088,inactive
ROBO2 (roundabout guidance receptor 2),-1.93,migration z between -2 and 2; enough cells,0.38,6052,inactive
HACD4 (3-hydroxyacyl-CoA dehydratase 4),-0.95,migration z between -2 and 2; enough cells,0.64,6614,inactive
QRFP (pyroglutamylated RFamide peptide),-0.54,migration z between -2 and 2; enough cells,0.74,5518,inactive
DHRS7 (dehydrogenase/reductase 7),-0.76,migration z between -2 and 2; enough cells,0.66,5637,inactive
NHERF4 (NHERF family PDZ scaffold protein 4),-2.01,migration z below -2; enough cells,0.36,6246,active
APOL3 (apolipoprotein L3),0.65,migration z between -2 and 2; enough cells,0.93,4914,inactive
DGKK (diacylglycerol kinase kappa),-1.58,migration z between -2 and 2; enough cells,0.5,4286,inactive
AP4M1 (adaptor related protein complex 4 subunit mu 1),-1.44,migration z between -2 and 2; enough cells,0.51,5044,inactive
MFAP2 (microfibril associated protein 2),-0.17,migration z between -2 and 2; enough cells,0.84,8348,inactive
SGCB (sarcoglycan beta),-0.75,migration z between -2 and 2; enough cells,0.69,5770,inactive
CXXC5 (CXXC finger protein 5),-0.79,migration z between -2 and 2; enough cells,0.68,4128,inactive
TMIGD2 (transmembrane and immunoglobulin domain containing 2),-2.75,migration z below -2; enough cells,0.17,5088,active
RGS16 (regulator of G protein signaling 16),-0.84,migration z between -2 and 2; enough cells,0.66,5889,inactive
BTBD8 (BTB domain containing 8),0.5,migration z between -2 and 2; enough cells,1.02,7298,inactive
MCM2 (minichromosome maintenance complex component 2),2.02,migration z above 2; enough cells,1.19,6462,active
FZD1 (frizzled class receptor 1),0.34,migration z between -2 and 2; enough cells,0.87,5138,inactive
WDR20 (WD repeat domain 20),0.06,migration z between -2 and 2; enough cells,0.9,5586,inactive
FOXO3 (forkhead box O3),0.28,migration z between -2 and 2; enough cells,0.96,6999,inactive
RLN2 (relaxin 2),-0.49,migration z between -2 and 2; enough cells,0.76,4784,inactive
SPATC1L (spermatogenesis and centriole associated 1 like),-1.02,under 3300 nuclei; migration not judged,0.62,2912,inactive
TIGD5 (tigger transposable element derived 5),-0.84,migration z between -2 and 2; enough cells,0.66,5638,inactive
"H1-3 (H1.3 linker histone, cluster member)",1.1,migration z between -2 and 2; enough cells,1.18,6002,inactive
"SPNS1 (SPNS lysolipid transporter 1, lysophospholipid)",-0.44,migration z between -2 and 2; enough cells,0.72,4690,inactive
"PCDHGB2 (protocadherin gamma subfamily B, 2)",-0.17,migration z between -2 and 2; enough cells,0.84,5861,inactive
ZIC5 (Zic family zinc finger 5),1.05,migration z between -2 and 2; enough cells,1.16,4872,inactive
PLCZ1 (phospholipase C zeta 1),0.34,migration z between -2 and 2; enough cells,0.87,6334,inactive
HDAC6 (histone deacetylase 6),-0.73,migration z between -2 and 2; enough cells,0.66,3702,inactive
RARRES2 (retinoic acid receptor responder 2),1.94,migration z between -2 and 2; enough cells,1.18,5980,inactive
ACTL8 (actin like 8),-2.66,migration z below -2; enough cells,0.2,5694,active
HOOK1 (hook microtubule tethering protein 1),1.46,migration z between -2 and 2; enough cells,1.27,6328,inactive
ACACA (acetyl-CoA carboxylase alpha),-0.42,migration z between -2 and 2; enough cells,0.73,3454,inactive
CALML5 (calmodulin like 5),-1.35,migration z between -2 and 2; enough cells,0.53,3963,inactive
XYLT2 (xylosyltransferase 2),-0.88,migration z between -2 and 2; enough cells,0.64,6060,inactive
HUWE1,0.36,migration z between -2 and 2; enough cells,0.87,6948,inactive
PRKAR1A,1.85,migration z between -2 and 2; enough cells,1.16,4026,inactive
SRPRA (SRP receptor subunit alpha),-0.31,migration z between -2 and 2; enough cells,0.74,4772,inactive
DNAL1 (dynein axonemal light chain 1),0.52,migration z between -2 and 2; enough cells,1.02,6632,inactive
ATP2B1 (ATPase plasma membrane Ca2+ transporting 1),-0.37,migration z between -2 and 2; enough cells,0.79,6820,inactive
"PLAUR (plasminogen activator, urokinase receptor)",0.83,migration z between -2 and 2; enough cells,0.96,5302,inactive
FLJ46838 (retired record),0.09,migration z between -2 and 2; enough cells,0.91,7019,inactive
KAT14 (lysine acetyltransferase 14),0.8,migration z between -2 and 2; enough cells,1.1,5825,inactive
FBXL20 (F-box and leucine rich repeat protein 20),-1.25,migration z between -2 and 2; enough cells,0.56,4702,inactive
C14orf119 (chromosome 14 open reading frame 119),0.26,migration z between -2 and 2; enough cells,0.96,7414,inactive
SENP3 (SUMO specific peptidase 3),-0.23,migration z between -2 and 2; enough cells,0.76,5012,inactive
TNPO2 (transportin 2),-0.57,migration z between -2 and 2; enough cells,0.7,6040,inactive
SLC38A7,-1.03,migration z between -2 and 2; enough cells,0.6,5232,inactive
UBE2B (ubiquitin conjugating enzyme E2 B),0,migration z between -2 and 2; enough cells,0.8,4631,inactive
IL1B (interleukin 1 beta),-2.36,migration z below -2; enough cells,0.35,6516,active
NFKBIZ (NFKB inhibitor zeta),-2.33,migration z below -2; enough cells,0.28,5936,active
